# Cleaved PARP in drug-treated melanoma cells

From a melanoma drug combination screen (doi:10.1371/journal.pone.0140310); values rounded.

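Human melanoma cell lines in 1,536-well plates were treated with a pair of drugs for 72 h, then fixed, stained and imaged. Values are the share of nuclei positive for cleaved PARP as a percentage of the same share in the DMSO control: 100 is the control level, higher means more apoptosis. Every drug was used at one fixed concentration, the higher of two screened. The file gives one value for each pair and line, without errors, so small differences may be noise. Basal and induced levels differ widely between cell lines.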 This is part of the screen, not chosen by result.

Compounds and concentrations:
PF-562271: CN(c1ncccc1CNc1nc(Nc2ccc3c(c2)CC(=O)N3)ncc1C(F)(F)F)S(C)(=O)=O at 0.4 µM
SNS-032: CC(C)(C)c1cnc(CSc2cnc(NC(=O)C3CCNCC3)s2)o1 at 0.05 µM
nilotinib: Cc1cn(-c2cc(NC(=O)c3ccc(C)c(Nc4nccc(-c5cccnc5)n4)c3)cc(C(F)(F)F)c2)cn1 at 1 µM
MK-1775: C=CCn1c(=O)c2cnc(Nc3ccc(N4CCN(C)CC4)cc3)nc2n1-c1cccc(C(C)(C)O)n1 at 0.1 µM
bortezomib: CC(C)C[C@H](NC(=O)[C@H](Cc1ccccc1)NC(=O)c1cnccn1)B(O)O at 0.005 µM
GSK650394: O=C(O)c1ccc(-c2c[nH]c3ncc(-c4ccccc4)cc23)cc1C1CCCC1 at 0.8 µM
vismodegib: CS(=O)(=O)c1ccc(C(=O)Nc2ccc(Cl)c(-c3ccccn3)c2)c(Cl)c1 at 5 µM
temozolomide: Cn1nnc2c(C(N)=O)ncn2c1=O at 10 µM

| # | Drugs | C32 | WM451Lu | RVH-421 |
|---|---|---|---|---|
| 1 | SNS-032 + bortezomib | 3390 | 3060 | 853 |
| 2 | temozolomide + GSK650394 | 135 | 79.9 | 97.4 |
| 3 | PF-562271 + MK-1775 | 204 | 190 | 64.2 |
| 4 | vismodegib + temozolomide | 27.2 | 71.8 | 57.3 |
| 5 | MK-1775 + SNS-032 | 276 | 105 | 211 |
| 6 | PF-562271 + vismodegib | 160 | 92.0 | 98.9 |
| 7 | nilotinib + temozolomide | 157 | 195 | 128 |
| 8 | vismodegib + SNS-032 | 200 | 248 | 110 |
| 9 | bortezomib + nilotinib | 1280 | 582 | 968 |
| 10 | nilotinib + PF-562271 | 484 | 199 | 149 |
| 11 | GSK650394 + SNS-032 | 107 | 133 | 53.7 |
| 12 | GSK650394 + vismodegib | 290 | 49.0 | 132 |
| 13 | GSK650394 + MK-1775 | 95.9 | 47.6 | 69.5 |
| 14 | nilotinib + MK-1775 | 196 | 178 | 110 |
| 15 | bortezomib + GSK650394 | 1570 | 526 | 736 |
| 16 | PF-562271 + SNS-032 | 1180 | 580 | 113 |
| 17 | bortezomib + PF-562271 | 1520 | 399 | 1430 |
| 18 | vismodegib + nilotinib | 121 | 47.6 | 187 |
| 19 | nilotinib + SNS-032 | 53.7 | 42.8 | 218 |
| 20 | MK-1775 + vismodegib | 38.8 | 339 | 142 |
| 21 | SNS-032 + temozolomide | 276 | 172 | 53.9 |
| 22 | vismodegib + bortezomib | 464 | 514 | 1210 |

The first 2 entries again:

Drugs,C32,WM451Lu,RVH-421
SNS-032 + bortezomib,3390,3060,853
temozolomide + GSK650394,135,79.9,97.4